The target of the test is recombinant human PCSK9, V5-, His-tagged (human, UniProt Q8NBP7 31-692, limits assumed). Kind of test: ELISA, immobilized V5-, His-tagged PCSK9, HRP anti-Fab detection. (In general: An ELISA detects its analyte on a solid surface through an enzyme-linked reagent.)

Chains of the proteins cited; added tags and fusions are not shown. Residues count along the entry.
UniProt Q8NBP7, residues 31-692: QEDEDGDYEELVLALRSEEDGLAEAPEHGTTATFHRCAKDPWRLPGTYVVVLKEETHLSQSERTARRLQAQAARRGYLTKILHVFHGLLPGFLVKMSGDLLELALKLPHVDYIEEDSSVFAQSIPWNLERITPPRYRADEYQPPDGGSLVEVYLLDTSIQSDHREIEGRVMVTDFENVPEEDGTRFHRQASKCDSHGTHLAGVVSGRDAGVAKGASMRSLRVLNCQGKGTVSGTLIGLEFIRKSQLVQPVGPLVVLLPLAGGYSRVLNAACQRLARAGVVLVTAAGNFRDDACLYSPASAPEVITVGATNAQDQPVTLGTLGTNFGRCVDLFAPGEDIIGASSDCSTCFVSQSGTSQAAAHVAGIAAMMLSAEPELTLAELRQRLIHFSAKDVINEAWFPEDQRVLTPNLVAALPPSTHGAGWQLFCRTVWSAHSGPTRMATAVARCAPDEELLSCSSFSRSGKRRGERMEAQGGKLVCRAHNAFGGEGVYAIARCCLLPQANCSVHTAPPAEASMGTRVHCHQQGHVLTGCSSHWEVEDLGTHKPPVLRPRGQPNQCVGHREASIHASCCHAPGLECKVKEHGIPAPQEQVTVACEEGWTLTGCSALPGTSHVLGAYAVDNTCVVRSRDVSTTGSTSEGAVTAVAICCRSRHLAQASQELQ

Numbering of substitutions follows the chain as printed. Results are given in words; binding and its absence hold for the method and conditions named. Some entries that bind do so weakly or less than the wild type.

B1: 1CX1G08 Fab (Fab, V domains shown)
VH: QVQLVESGGGLVQPGGSLRLSCAASGFTFSDYWVSWVRQAPGKGLEWVSFISYDGSSTYYADSVKGRFTISRDNSKNTLYLQMNSLRAEDTAVYYCARTYFEGVDVWGQGTLVTVSS
VL: DIELTQPPSVSVAPGQTARISCSGDNIGTYYVHWYQQKPGQAPVLVIYDDSNRPSGIPERFSGSNSGNTATLTISGTQAEDEADYYCGTWDNTSFNLVFGGGTKLTVLG
As for B1, the binding entry is “binds”.

B2: 3BX5C01 Fab (Fab, V domains shown)
VH: QVQLVQSGAEVKKPGESLKISCKGSGYSFTSYGISWVRQMPGKGLEWMGMIDPSDSFTTYSPSFQGQVTISADKSISTAYLQWSSLKASDTAMYYCARGYYFTYALQPMDHWGQGTLVTVSS
VL: DIELTQPPSVSVAPGQTARISCSGDNLRDYIVHWYQQKPGQAPVLVIYDDSNRPSGIPERFSGSNSGNTATLTISGTQAEDEADYYCGFDNGGDIDVFGGGTKLTVLG
Regarding B2, the binding entry is listed as “binds”.

B3: 3CX4B08 Fab (Fab, V domains shown)
VH: QVQLVESGGGLVQPGGSLRLSCAASGFTFSNYTMNWVRQAPGKGLEWVSFISSSSSETYYADSVKGRFTISRDNSKNTLYLQMNSLRAEDTAVYYCARGYGDMVDLWGQGTLVTVSS
VL: DIELTQPPSVSVAPGQTARISCSGDSIPTYYVAWYQQKPGQAPVLVIYSDTDRPSGIPERFSGSNSGNTATLTISGTQAEDEADYYCQSFDNHGYHVFGGGTKLTVLG
With B3, the binding entry is recorded as “binds”.

B4: 3CX2A06 Fab (Fab, V domains shown)
VH: QVQLVQSGAEVKKPGESLKISCKGSGYSFSNFWIAWVRQMPGKGLEWMGIIDPSDSWTRYSPSFQGQVTISADKSISTAYLQWSSLKASDTAMYYCARGDGQDFDNWGQGTLVTVSS
VL: DIQMTQSPSSLSASVGDRVTITCRASQNINSYLNWYQQKPGKAPKLLIYAASSLQSGVPSRFSGSGSGTDFTLTISSLQPEDFAVYYCLQNYDLPNTFGQGTKVEIKR
Regarding B4, the binding entry is given as “binds”.

B5: 3CX3D02 Fab (Fab, V domains shown)
VH: QVQLVQSGAEVKKPGESLKISCKGSGYSFTNSWIGWVRQMPGKGLEWMGIIYPSDSYTIYSPSFQGQVTISADKSISTAYLQWSSLKASDTAMYYCARGGGYYYALMDVWAQGTLVTVSS
VL: B4 VL with N28T, N30S, S31T, Y32W, V85T, N91D, Y92S, D93S, N96L
As to B5, the binding result is on record as “binds”.
